Data as given in the supplement of paper PMC10849652.
This is one part of the list.

By UniProt entry, the sequences of proteins in these tests, tags left out. Where a name states a change or a piece, a line headed by the entry shows the natural chain unless it says otherwise.
UniProt Q9BU61: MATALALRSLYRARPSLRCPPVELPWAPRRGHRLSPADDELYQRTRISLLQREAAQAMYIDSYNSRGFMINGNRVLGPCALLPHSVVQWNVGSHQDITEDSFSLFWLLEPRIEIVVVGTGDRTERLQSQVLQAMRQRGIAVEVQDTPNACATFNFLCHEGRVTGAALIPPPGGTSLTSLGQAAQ
UniProt Q9H3P2, whole entry, looked up: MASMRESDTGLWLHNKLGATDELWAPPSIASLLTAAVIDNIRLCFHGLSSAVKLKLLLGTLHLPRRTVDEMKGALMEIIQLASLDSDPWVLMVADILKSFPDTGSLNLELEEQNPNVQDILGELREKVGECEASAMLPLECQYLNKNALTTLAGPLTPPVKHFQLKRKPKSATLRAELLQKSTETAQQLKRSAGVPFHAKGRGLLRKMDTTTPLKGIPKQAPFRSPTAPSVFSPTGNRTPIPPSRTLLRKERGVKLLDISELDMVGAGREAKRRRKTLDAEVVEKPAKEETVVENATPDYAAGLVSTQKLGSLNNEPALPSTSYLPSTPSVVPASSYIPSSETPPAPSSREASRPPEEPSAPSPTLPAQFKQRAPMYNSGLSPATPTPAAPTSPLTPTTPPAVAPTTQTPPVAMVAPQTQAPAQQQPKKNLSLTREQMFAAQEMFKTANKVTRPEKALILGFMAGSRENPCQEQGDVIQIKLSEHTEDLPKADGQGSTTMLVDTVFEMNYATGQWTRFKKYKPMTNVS
UniProt P21359: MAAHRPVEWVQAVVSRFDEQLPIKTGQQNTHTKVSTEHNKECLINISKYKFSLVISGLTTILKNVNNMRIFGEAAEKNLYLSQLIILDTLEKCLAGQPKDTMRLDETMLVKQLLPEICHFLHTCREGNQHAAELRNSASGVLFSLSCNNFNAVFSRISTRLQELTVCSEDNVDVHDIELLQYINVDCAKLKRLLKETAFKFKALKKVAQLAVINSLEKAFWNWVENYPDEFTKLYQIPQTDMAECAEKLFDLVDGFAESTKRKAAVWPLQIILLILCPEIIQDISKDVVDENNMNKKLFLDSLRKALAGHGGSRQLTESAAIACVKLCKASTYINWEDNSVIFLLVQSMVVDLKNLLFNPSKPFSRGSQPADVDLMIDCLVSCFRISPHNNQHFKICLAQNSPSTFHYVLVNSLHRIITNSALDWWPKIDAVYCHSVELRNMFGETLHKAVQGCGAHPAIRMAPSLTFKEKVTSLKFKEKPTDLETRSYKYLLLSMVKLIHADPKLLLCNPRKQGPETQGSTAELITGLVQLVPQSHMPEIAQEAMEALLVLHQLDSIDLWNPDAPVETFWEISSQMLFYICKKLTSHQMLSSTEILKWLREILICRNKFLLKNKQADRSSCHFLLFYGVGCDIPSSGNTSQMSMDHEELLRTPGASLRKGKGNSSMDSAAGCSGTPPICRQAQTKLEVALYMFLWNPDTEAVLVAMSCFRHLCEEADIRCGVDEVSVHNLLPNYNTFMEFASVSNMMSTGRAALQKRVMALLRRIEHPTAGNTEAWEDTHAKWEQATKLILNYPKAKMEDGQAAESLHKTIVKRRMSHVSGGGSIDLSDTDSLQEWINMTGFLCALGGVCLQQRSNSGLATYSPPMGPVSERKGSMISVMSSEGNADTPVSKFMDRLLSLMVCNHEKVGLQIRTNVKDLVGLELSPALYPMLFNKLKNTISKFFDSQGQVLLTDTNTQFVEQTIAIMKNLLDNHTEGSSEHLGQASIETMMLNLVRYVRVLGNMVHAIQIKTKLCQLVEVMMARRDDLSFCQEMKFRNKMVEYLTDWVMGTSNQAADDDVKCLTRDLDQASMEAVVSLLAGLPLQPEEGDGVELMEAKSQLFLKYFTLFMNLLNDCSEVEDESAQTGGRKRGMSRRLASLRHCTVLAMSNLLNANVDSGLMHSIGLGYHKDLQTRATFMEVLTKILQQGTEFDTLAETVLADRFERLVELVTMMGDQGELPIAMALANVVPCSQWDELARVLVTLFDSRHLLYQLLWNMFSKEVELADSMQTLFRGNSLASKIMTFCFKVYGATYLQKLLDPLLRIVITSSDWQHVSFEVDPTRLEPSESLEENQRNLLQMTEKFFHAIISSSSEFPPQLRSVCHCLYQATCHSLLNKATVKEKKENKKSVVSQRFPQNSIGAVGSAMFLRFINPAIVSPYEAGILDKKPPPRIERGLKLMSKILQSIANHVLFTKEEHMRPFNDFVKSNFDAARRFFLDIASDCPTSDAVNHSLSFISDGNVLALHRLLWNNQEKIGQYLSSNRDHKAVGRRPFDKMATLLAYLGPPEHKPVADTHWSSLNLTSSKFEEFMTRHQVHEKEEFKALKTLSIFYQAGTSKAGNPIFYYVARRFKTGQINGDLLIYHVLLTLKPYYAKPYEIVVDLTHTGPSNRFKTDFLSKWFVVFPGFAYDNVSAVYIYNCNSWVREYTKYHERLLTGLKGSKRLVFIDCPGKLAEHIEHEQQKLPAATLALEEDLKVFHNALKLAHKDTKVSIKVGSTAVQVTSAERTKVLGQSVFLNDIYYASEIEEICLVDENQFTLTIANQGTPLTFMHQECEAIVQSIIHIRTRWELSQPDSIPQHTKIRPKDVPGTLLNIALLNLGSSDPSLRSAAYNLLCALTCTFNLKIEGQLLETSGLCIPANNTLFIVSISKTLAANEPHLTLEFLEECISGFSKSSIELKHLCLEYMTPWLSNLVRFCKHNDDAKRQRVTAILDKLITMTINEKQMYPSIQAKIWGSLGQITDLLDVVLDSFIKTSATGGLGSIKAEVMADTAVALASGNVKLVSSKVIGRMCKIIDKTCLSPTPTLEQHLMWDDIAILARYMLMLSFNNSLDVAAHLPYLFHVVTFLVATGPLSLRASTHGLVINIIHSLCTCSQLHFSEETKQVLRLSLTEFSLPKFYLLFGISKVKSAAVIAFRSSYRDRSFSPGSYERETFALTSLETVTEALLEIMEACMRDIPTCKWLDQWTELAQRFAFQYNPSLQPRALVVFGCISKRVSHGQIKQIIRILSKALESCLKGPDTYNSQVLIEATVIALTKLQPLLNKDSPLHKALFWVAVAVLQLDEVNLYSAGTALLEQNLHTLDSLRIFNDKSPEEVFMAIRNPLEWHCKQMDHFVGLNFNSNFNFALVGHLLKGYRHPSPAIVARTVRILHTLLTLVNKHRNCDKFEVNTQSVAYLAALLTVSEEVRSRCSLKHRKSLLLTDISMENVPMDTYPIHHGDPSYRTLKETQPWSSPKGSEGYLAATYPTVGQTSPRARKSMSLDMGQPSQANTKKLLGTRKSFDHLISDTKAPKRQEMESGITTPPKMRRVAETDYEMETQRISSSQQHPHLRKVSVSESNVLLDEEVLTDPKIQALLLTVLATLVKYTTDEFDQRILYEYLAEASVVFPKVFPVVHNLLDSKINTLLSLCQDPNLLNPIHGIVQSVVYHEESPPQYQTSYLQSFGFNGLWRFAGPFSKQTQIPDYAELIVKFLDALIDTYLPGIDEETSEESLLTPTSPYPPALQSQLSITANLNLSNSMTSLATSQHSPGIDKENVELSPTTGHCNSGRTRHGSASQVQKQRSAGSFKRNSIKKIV
UniProt Q9NQR4: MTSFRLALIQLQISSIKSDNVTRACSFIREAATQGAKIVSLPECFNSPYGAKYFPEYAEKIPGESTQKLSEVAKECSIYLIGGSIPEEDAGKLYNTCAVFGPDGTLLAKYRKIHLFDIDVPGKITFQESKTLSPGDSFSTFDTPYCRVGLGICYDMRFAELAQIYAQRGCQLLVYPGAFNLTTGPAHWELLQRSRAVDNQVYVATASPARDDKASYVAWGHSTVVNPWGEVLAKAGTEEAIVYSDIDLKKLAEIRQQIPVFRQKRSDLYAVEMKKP
UniProt Q9GZM8: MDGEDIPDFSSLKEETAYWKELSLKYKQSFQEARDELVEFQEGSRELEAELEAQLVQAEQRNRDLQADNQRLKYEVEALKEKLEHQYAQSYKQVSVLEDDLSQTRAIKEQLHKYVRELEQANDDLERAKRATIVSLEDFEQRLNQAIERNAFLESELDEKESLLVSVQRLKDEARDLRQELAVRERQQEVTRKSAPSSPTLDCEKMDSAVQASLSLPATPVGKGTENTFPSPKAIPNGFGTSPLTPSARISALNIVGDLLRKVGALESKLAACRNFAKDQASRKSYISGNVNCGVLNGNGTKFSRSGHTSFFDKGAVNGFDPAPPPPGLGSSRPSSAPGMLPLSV
UniProt O43674, whole entry, looked up: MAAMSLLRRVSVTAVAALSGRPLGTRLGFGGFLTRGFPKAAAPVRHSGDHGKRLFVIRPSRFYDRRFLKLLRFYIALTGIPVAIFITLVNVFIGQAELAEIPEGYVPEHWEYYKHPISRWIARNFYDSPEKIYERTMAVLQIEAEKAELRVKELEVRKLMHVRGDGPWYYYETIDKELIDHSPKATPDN
UniProt Q16718, whole entry, looked up: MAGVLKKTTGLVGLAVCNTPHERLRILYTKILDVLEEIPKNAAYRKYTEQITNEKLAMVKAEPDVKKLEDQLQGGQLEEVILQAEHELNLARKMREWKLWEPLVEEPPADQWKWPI
UniProt Q9H9Q4: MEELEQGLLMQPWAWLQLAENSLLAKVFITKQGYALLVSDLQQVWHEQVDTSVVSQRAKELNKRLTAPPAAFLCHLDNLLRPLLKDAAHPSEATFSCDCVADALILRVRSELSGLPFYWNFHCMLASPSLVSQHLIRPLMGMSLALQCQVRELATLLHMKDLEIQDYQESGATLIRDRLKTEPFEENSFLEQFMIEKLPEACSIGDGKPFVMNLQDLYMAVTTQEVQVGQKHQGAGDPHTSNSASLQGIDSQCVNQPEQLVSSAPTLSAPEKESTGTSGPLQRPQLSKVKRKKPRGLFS
UniProt Q16795, whole entry, looked up: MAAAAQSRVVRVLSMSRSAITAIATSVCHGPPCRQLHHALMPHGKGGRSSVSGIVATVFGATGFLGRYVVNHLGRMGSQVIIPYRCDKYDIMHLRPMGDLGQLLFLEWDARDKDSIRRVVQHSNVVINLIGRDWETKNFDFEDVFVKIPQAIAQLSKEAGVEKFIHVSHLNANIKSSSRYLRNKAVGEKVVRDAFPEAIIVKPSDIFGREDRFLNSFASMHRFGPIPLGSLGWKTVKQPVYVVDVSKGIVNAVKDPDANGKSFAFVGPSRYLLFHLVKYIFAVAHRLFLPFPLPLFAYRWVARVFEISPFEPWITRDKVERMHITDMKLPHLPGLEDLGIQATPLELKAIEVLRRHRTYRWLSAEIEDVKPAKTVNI
UniProt Q96PY6: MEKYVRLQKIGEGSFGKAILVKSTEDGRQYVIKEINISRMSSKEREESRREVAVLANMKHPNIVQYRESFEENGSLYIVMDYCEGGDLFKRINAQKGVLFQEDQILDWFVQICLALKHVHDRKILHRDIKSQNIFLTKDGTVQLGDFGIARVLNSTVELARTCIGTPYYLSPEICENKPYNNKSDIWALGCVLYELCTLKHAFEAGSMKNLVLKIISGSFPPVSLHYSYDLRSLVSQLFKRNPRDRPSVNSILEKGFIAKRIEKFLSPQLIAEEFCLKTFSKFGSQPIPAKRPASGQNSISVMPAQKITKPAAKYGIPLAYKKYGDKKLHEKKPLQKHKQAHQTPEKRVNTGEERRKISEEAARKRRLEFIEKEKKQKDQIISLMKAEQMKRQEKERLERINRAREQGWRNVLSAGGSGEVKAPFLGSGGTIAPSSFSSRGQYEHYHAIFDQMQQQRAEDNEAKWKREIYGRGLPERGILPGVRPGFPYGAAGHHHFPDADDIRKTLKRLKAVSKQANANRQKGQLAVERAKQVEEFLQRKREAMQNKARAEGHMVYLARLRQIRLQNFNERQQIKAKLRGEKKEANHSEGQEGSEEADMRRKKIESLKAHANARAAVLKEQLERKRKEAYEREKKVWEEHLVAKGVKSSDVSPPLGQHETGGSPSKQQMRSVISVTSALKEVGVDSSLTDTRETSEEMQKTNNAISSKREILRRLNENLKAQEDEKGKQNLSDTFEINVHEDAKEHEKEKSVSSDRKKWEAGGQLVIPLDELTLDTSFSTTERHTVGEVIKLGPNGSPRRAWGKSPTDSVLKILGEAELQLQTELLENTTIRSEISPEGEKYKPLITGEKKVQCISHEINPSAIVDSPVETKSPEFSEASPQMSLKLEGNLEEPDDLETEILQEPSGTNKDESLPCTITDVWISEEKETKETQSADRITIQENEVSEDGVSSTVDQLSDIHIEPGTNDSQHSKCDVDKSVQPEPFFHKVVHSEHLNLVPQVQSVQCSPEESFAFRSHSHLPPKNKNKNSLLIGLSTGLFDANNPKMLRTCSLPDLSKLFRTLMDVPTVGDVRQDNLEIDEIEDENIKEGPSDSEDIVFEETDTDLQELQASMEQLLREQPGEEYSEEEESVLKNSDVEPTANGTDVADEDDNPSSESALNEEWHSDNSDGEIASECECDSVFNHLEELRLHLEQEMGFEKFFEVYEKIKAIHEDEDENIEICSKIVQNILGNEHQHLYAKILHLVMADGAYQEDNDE
UniProt P51970, whole entry, looked up: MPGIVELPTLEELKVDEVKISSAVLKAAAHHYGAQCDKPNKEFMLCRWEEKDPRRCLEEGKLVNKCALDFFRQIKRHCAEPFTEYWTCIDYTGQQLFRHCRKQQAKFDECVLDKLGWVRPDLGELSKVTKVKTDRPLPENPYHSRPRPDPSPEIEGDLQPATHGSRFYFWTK

Experiments:
Test in all cases: log2 fold change, soluble protein after heating vs DMSO (PISA); higher = thermal stabilisation; K562 lysate, 10 uM; active = over 0.2 and 3.5 SD of the protein, either way, in both replicates (recomputed)
lapatinib = compound: CS(=O)(=O)CCNCc1ccc(-c2ccc3ncnc(Nc4ccc(OCc5cccc(F)c5)c(Cl)c4)c3c2)o1 [lapatinib]
Outline: (§1)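 Dounce homogenisation of K562 pellets in PBS pH 7.4 with 1 mM MgCl2 produced a crude extract, used at 1 mg/mL protein. Exposure to 10 μM compound lasted 30 min, and aliquots were then heated for 3 min across 48°C-58°C, pooled and brought to 0.5% NP-40 at 4°C. The supernatant after 21,000xg for 90 min was quantified by TMTpro 16plex LC-MS/MS with channel sums equalised. Duplicate values are given as log-two fold change in thermal stability relative to solvent controls.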

pictilisib = compound: CS(=O)(=O)N1CCN(Cc2cc3nc(-c4cccc5[nH]ncc45)nc(N4CCOCC4)c3s2)CC1 [pictilisib]
Outline: as §1

crizotinib = compound: C[C@@H](Oc1cc(-c2cnn(C3CCNCC3)c2)cnc1N)c1c(Cl)ccc(F)c1Cl [crizotinib]
Outline: as §1

[1] = compound: C[C@H](C1=CC=C(C=C1)C(=O)NC2=C3C=CNC3=NC=C2)N
Outline: as §1

duvelisib = compound: C[C@H](Nc1ncnc2nc[nH]c12)c1cc2cccc(Cl)c2c(=O)n1-c1ccccc1 [duvelisib]
Outline: as §1

gandotinib = compound: Cc1cc(Nc2cc(CN3CCOCC3)c3nc(C)c(Cc4ccc(Cl)cc4F)n3n2)n[nH]1 [gandotinib]
Outline: as §1

tozasertib = compound: Cc1cc(Nc2cc(N3CCN(C)CC3)nc(Sc3ccc(NC(=O)C4CC4)cc3)n2)n[nH]1 [tozasertib]
Outline: as §1

doramapimod = compound: Cc1ccc(-n2nc(C(C)(C)C)cc2NC(=O)Nc2ccc(OCCN3CCOCC3)c3ccccc23)cc1 [doramapimod]
Outline: as §1

bafetinib = compound: Cc1ccc(NC(=O)c2ccc(CN3CC[C@H](N(C)C)C3)c(C(F)(F)F)c2)cc1Nc1nccc(-c2cncnc2)n1 [bafetinib]
Outline: as §1

[2] = compound: Cc1cccc(CC(=O)N2CCc3c2ccc(-c2cn(C)c4ncnc(N)c24)c3F)n1
Outline: as §1

nilotinib = compound: Cc1cn(-c2cc(NC(=O)c3ccc(C)c(Nc4nccc(-c5cccnc5)n4)c3)cc(C(F)(F)F)c2)cn1 [nilotinib]
Outline: as §1

[3] = compound: Cc1nc(Nc2n[nH]c3c2CN(C(=O)N[C@H](CN(C)C)c2ccccc2)C3(C)C)c2sccc2n1
Outline: as §1

dasatinib = compound: Cc1nc(Nc2ncc(C(=O)Nc3c(C)cccc3Cl)s2)cc(N2CCN(CCO)CC2)n1 [dasatinib]
Outline: as §1

[4] = compound: Cc1ncc(-c2ccnc(Nc3ccc(S(C)(=O)=O)cc3)n2)n1C(C)C
Outline: as §1

[5] = compound: Cn1cc(-c2ccc3c(c2)CCN3C(=O)Cc2cccc(C(F)(F)F)c2)c2c(N)ncnc21
Outline: as §1

quisinostat = compound: Cn1cc(CNCC2CCN(c3ncc(C(=O)NO)cn3)CC2)c2ccccc21 [quisinostat]
Outline: as §1

tipifarnib = compound: Cn1cncc1[C@@](N)(c1ccc(Cl)cc1)c1ccc2c(c1)c(-c1cccc(Cl)c1)cc(=O)n2C [tipifarnib]
Outline: as §1

[6] = compound: NC(=O)Nc1cc(-c2cccc(F)c2)sc1C(=O)N[C@H]1CCCNC1
Outline: as §1

[7] = compound: NC(=O)c1cnc(N[C@@H]2CCCC[C@@H]2N)nc1Nc1cccc(-n2nccn2)c1
Outline: as §1

[8] = compound: NC1(c2ccc(-c3nc4ccn5c(=O)[nH]nc5c4cc3-c3ccccc3)cc2)CCC1
Outline: as §1

Measured: log2 fold change

NDUFAF3 (UniProt Q9BU61)
inactive: lapatinib -0.017 | pictilisib 0.042 | crizotinib -0.037 | [1] -0.034 | duvelisib -0.033 | gandotinib -0.083 | tozasertib 0.014 | doramapimod 0.037 | bafetinib -0.023 | [2] 0.094 | nilotinib -0.03 | [3] 0.009 | dasatinib -0.04 | [4] 0.053 | [5] 0.005 | quisinostat -0.038 | tipifarnib 0.01 | [6] -0.003 | [7] 0.007 | [8] 0.044

NELFA (UniProt Q9H3P2)
inactive: lapatinib -0.031 | pictilisib 0.021 | crizotinib 0.018 | [1] 0.06 | duvelisib -0.018 | gandotinib -0.079 | tozasertib 0.048 | doramapimod 0.022 | bafetinib -0.048 | [2] -0.003 | nilotinib -0.018 | [3] -0.01 | dasatinib -0.064 | [4] -0.02 | [5] -0.009 | quisinostat -0.007 | tipifarnib 0.024 | [6] 0.03 | [7] 0.048 | [8] -0.014

NF1 (UniProt P21359)
inactive: lapatinib -0.034 | pictilisib -0.022 | crizotinib -0.075 | [1] -0.031 | duvelisib -0.001 | gandotinib -0.108 | tozasertib -0.014 | doramapimod -0.009 | bafetinib -0.041 | [2] 0.049 | nilotinib -0.021 | [3] 0.053 | dasatinib 0.007 | [4] -0.039 | [5] 0.024 | quisinostat -0.059 | tipifarnib 0.018 | [6] 0.041 | [7] 0.016 | [8] -0.016

NIT2 (UniProt Q9NQR4)
inactive: lapatinib 0.002 | pictilisib -0.048 | crizotinib -0.026 | [1] -0.008 | duvelisib 0.011 | gandotinib -0.01 | tozasertib 0.002 | doramapimod -0.023 | bafetinib 0.011 | [2] -0.06 | nilotinib -0.011 | [3] 0.001 | dasatinib -0.03 | [4] -0.021 | [5] -0.027 | quisinostat 0.004 | tipifarnib 0.019 | [6] 0.021 | [7] -0.016 | [8] -0.023

NDEL1 isoform 2 (UniProt Q9GZM8)
inactive: lapatinib 0.007 | pictilisib 0.012 | crizotinib 0.051 | [1] 0.14 | duvelisib -0.023 | gandotinib 0.039 | tozasertib -0.024 | doramapimod 0.034 | bafetinib -0.041 | [2] -0.041 | nilotinib 0.038 | [3] -0.042 | dasatinib 0.032 | [4] -0.021 | [5] 0.071 | quisinostat -0.041 | tipifarnib 0.038 | [6] 0.036 | [7] -0.034 | [8] 0.035

2 successive entries from above:
NELFA (UniProt Q9H3P2)
inactive: lapatinib -0.031 | pictilisib 0.021 | crizotinib 0.018 | [1] 0.06 | duvelisib -0.018 | gandotinib -0.079 | tozasertib 0.048 | doramapimod 0.022 | bafetinib -0.048 | [2] -0.003 | nilotinib -0.018 | [3] -0.01 | dasatinib -0.064 | [4] -0.02 | [5] -0.009 | quisinostat -0.007 | tipifarnib 0.024 | [6] 0.03 | [7] 0.048 | [8] -0.014

NF1 (UniProt P21359)
inactive: lapatinib -0.034 | pictilisib -0.022 | crizotinib -0.075 | [1] -0.031 | duvelisib -0.001 | gandotinib -0.108 | tozasertib -0.014 | doramapimod -0.009 | bafetinib -0.041 | [2] 0.049 | nilotinib -0.021 | [3] 0.053 | dasatinib 0.007 | [4] -0.039 | [5] 0.024 | quisinostat -0.059 | tipifarnib 0.018 | [6] 0.041 | [7] 0.016 | [8] -0.016

Additional records.

NEDD1 isoform 3 (UniProt Q8NHV4)
inactive: lapatinib -0.011 | pictilisib 0.002 | crizotinib 0.082 | [1] -0.027 | duvelisib 0.018 | gandotinib 0.011 | tozasertib 0.031 | doramapimod -0.013 | bafetinib -0.002 | [2] -0.022 | nilotinib -0.053 | [3] 0 | dasatinib 0.042 | [4] 0.049 | [5] 0.112 | quisinostat 0.05 | tipifarnib -0.011 | [6] 0 | [7] -0.013 | [8] 0.013

NDUFB5 (UniProt O43674)
inactive: lapatinib -0.019 | pictilisib 0.016 | crizotinib 0.02 | [1] 0.095 | duvelisib -0.002 | gandotinib -0.048 | tozasertib 0.058 | doramapimod 0.005 | bafetinib -0.04 | [2] -0.012 | nilotinib 0.002 | [3] -0.013 | dasatinib -0.012 | [4] 0.017 | [5] 0.008 | quisinostat 0.03 | tipifarnib 0.015 | [6] -0.057 | [7] -0.003 | [8] 0.04

NHP2 (UniProt Q9NX24)
inactive: lapatinib 0.04 | pictilisib 0.035 | crizotinib 0.017 | [1] -0.203 | duvelisib 0.074 | gandotinib 0.092 | tozasertib 0.057 | doramapimod -0.038 | bafetinib 0.037 | [2] 0.058 | nilotinib -0.077 | [3] 0.06 | dasatinib 0.03 | [4] 0.029 | [5] -0.007 | quisinostat 0.035 | tipifarnib -0.026 | [6] -0.063 | [7] 0.043 | [8] 0.016

NDUFA5 (UniProt Q16718)
inactive: lapatinib 0.085 | pictilisib 0.036 | crizotinib -0.01 | [1] 0.113 | duvelisib 0 | gandotinib -0.104 | tozasertib 0.065 | doramapimod -0.009 | bafetinib 0.028 | [2] -0.01 | nilotinib 0.071 | [3] 0.05 | dasatinib 0.035 | [4] 0.09 | [5] 0.026 | quisinostat 0.015 | tipifarnib 0.04 | [6] -0.039 | [7] -0.028 | [8] 0.051

NIF3L1 (UniProt Q9GZT8)
inactive: lapatinib -0.011 | pictilisib -0.051 | crizotinib 0.012 | [1] 0.011 | duvelisib 0.013 | gandotinib 0.036 | tozasertib -0.025 | doramapimod 0.015 | bafetinib 0.013 | [2] 0.005 | nilotinib -0.005 | [3] -0.004 | dasatinib 0.022 | [4] 0.011 | [5] -0.03 | quisinostat 0.005 | tipifarnib -0.025 | [6] -0.008 | [7] -0.022 | [8] 0.008

NHEJ1 (UniProt Q9H9Q4)
inactive: lapatinib 0.005 | pictilisib -0.03 | crizotinib 0.014 | [1] -0.003 | duvelisib 0.057 | gandotinib 0.053 | tozasertib -0.019 | doramapimod 0.03 | bafetinib -0.014 | [2] 0 | nilotinib 0.05 | [3] 0.048 | dasatinib -0.007 | [4] 0.108 | [5] -0.076 | quisinostat -0.045 | tipifarnib -0.004 | [6] 0.049 | [7] -0.025 | [8] -0.009

NDUFA9 (UniProt Q16795)
inactive: lapatinib -0.049 | pictilisib 0.004 | crizotinib -0.016 | [1] 0.04 | duvelisib -0.06 | gandotinib -0.005 | tozasertib 0.074 | doramapimod -0.063 | bafetinib 0.041 | [2] 0.029 | nilotinib 0.03 | [3] 0.028 | dasatinib 0.023 | [4] 0.054 | [5] 0.041 | quisinostat 0.078 | tipifarnib 0.014 | [6] -0.061 | [7] 0.042 | [8] 0.094

NIFK (UniProt Q9BYG3)
inactive: lapatinib -0.004 | pictilisib -0.019 | crizotinib -0.033 | [1] -0.027 | duvelisib 0.009 | gandotinib 0 | tozasertib 0.036 | doramapimod -0.009 | bafetinib -0.026 | [2] 0.064 | nilotinib 0.033 | [3] -0.003 | dasatinib -0.012 | [4] 0.035 | [5] -0.01 | quisinostat -0.042 | tipifarnib 0.002 | [6] 0.037 | [7] -0.016 | [8] -0.038

NEU1 (UniProt Q99519)
inactive: lapatinib -0.089 | pictilisib -0.033 | crizotinib 0.042 | [1] -0.033 | duvelisib 0.012 | gandotinib 0.001 | tozasertib 0.024 | doramapimod -0.006 | bafetinib 0.035 | [2] 0.068 | nilotinib 0.063 | [3] 0.02 | dasatinib -0.012 | [4] 0.194 | [5] -0.003 | quisinostat -0.011 | tipifarnib -0.071 | [6] -0.014 | [7] -0.02 | [8] 0.003

NEK1 isoform 3 (UniProt Q96PY6)
inactive: lapatinib 0.152 | pictilisib -0.022 | crizotinib -0.126 | [1] -0.009 | duvelisib 0.004 | gandotinib -0.022 | tozasertib -0.013 | doramapimod -0.054 | bafetinib -0.011 | [2] 0.008 | nilotinib 0.031 | [3] -0.077 | dasatinib -0.004 | [4] 0.008 | [5] -0.032 | quisinostat -0.062 | tipifarnib 0.039 | [6] 0.047 | [7] 0.123 | [8] -0.003

NDUFA8 (UniProt P51970)
inactive: lapatinib -0.029 | pictilisib -0.017 | crizotinib 0.011 | [1] 0.129 | duvelisib 0.041 | gandotinib -0.053 | tozasertib 0.097 | doramapimod 0.01 | bafetinib 0.059 | [2] -0.09 | nilotinib -0.179 | [3] -0.086 | dasatinib 0.017 | [4] -0.096 | [5] 0.095 | quisinostat -0.052 | tipifarnib -0.01 | [6] -0.023 | [7] -0.007 | [8] 0.028
